Binding data for one molecule are collected here from paper PMC7075923.

The target of assay [1] is p8^fnf (TCV p8 with the C-terminal FNF triplet mutated to alanine), Gal4-BD fusion (Turnip crinkle virus). Briefly: two-hybrid; GAL4 […] system, yeast AH109; DGBp1s and their fnf mutants as Gal4-BD fusions against full-length Arabidopsis ORFs as Gal4-AD fusions; controls pBD-p53 and pAC-ILR3; growth on SD + DO-A-H-L-W + X-alpha Gal.
For assay [2], the target named is p7^fnf (CarMV p7 with the C-terminal FNF triplet mutated to alanine), Gal4-BD fusion (Carnation mottle virus). Described as above.

These are yes or no findings as the source states them, for the method shown. Where a sequence is shown, tags or fusion partners need not be part of it.

B1: 60 S acidic ribosomal protein P3 (RPP3A), Gal4-AD fusion (protein, UniProt Q9SVZ6 1-119)
chain: MGVFTFVCKNGGGAWSAKQHEGELESSASSTYELQRKLVQVSLSADSSGGVQSSFSLVSPTSAVFQVIVGGGGGGGFSAGGAASSGGGAGEAAAAPKEDEKKKEESEEEEGDFGFDLFG
For the molecule B1, the binding result in assay [1] and in assay [2] was “no binding” in each case.
